From the supplement of paper PMC7125110
± gives the standard error. Many of these values have a large error.

B1: glmS ribozyme (parent)
chain: AUAAAAGCGCCAGAACUACAGAAAUGUAGUUGACGAGGAGGAGGUUUAUCGAAUUUUCGGCGGAUGCCUCCAAA

Variants of: B1
Test: KM; higher = weaker cofactor use; RNA array
Conditions: with glucosamine-6-phosphate
Summary of the method: (§1)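 Barcoded ribozyme variants were transcribed in situ on sequenced MiSeq chips by E. coli RNA polymerase. At 37 °C, a hybridised Cy3 probe tracked them while glucosamine-6-phosphate (40 μM to 10 mM) in HEPES/KCl/Mg(OAc)2 buffer flowed in and tiles were imaged over ~14 h. Per-tile medians of signals normalised to baseline and to non-cleaving reference variants were fit to one- or two-exponential decays, giving kobs. kcat and KM came from weighted Michaelis–Menten fits across concentrations.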

Row | Variant | KM [µM]
1 | AUAAAAGCGCCAGCAUUACAGAAAUGUAGUUGACGAGGAGGAGGUUUAUCGAAUUUUCGGCGGAUGCCUCCAAA [A14C C16U] | 922 ± 250
2 | AUAAAAGCGCCUGAACUACAGAAAUGUAGUUGACGAGGAGGAGUUUGAUCGAAUUUUCGGCGGAUGCCUCCAAA [A12U G44U U47G] | 1390 ± 880
3 | AUAAAAGCGCCAGCACUACAGAAAUGUAGUUGACGAGGAGGAGGUUUAUCGAGUUUUCGGCGGAUGCCUCCAAA [A14C A53G] | 4860 ± 3000
4 | AUAAAAGCGCCACAAGUACAGAAAUGUAGUUGACGAGGAGGAGGUUUAUCGAAUUUUCGGCGGAUGCCUCCAAA [G13C C16G] | 5230 ± 4100
5 | AUAAAAGCGCCUAAACUACAGAAAUGUAGUUGACGAGGAGGAGGUUUAUCGAAUUUUCGGCGGAUGCCUCCAAA [A12U G13A] | 12100 ± 5800
6 | AUAAAAGCGCCUGAACUACAGAAAUGUAGUUGACGAGGAGGAGGUUUAUCGAAUGUUCGGCGGAUGCCUCCAAA [A12U U55G] | 104 ± 42
7 | AUAAAAGCGCCAUAACUACAGAAAUGUAAUUGACGAGGAGGAGGUUUAUCGAAUUUUCGGCGGAUGCCUCCAAA [G13U G29A] | 6480 ± 1300
8 | AUAAAAGCGCCAUAACUACAGAAAUGUAGUUGACGAGGAGGAGGUUUAUCGAAUUAUCGGCGGAUGUCUCCAAA [G13U U56A C67U] | 4680 ± 3800
9 | AUAAAAGCGCCAGCACUACAGAAAUGUAGUUGACGAAGAGGAGGUUUAUCGAAUUUUCGGCGGAUGCCUCCAAA [A14C G37A] | 2490 ± 1300
10 | AUAAAAGCGCCUGAACUACAGAAAUGUAGUUGACGAGGAUGAGGGUUAUCGAAUUUUCGGCGGAUGCCUCCAAA [A12U G40U U45G] | 315 ± 160
11 | AUAAAAGCGCCAGCACUACAGAAAUGUAGUUAACGAGGAGGAGGUUUAUCGAAUUUUCGGCGGAUGCCUCCAAA [A14C G32A] | 3200 ± 1700
12 | AUAAAAGCGCCACAACUACAGAAAUGUAGUUGACGAGGAGAAGGUUUAUCGAAUUUUCGGCGGAUGCCUCCAAA [G13C G41A] | 20900 ± 2500
13 | AUAAAAGCGCCAGCACUACAGAAAUGUAGUUGACGAGGAGGAGGUUUAUCGAAUUUUCGGCGGAUGCCUCAAAA [A14C C71A] | 3250 ± 2700
14 | AUAAAAGCGCCACAACUACAGAAAUGUAGUUGACGAGGAGGAGGGUUAUCGAAUUUUCGGCGGAUGCCUCCAAA [G13C U45G] | 1530 ± 810
15 | AUAAAAGCGCCUGAACUACAGAAAUGUAGCUGACGAGGAGGAGGUUUAUCGACUUUUCGGCGGAUGCCUCCAAA [A12U U30C A53C] | 555 ± 500
16 | AUAAAAGCGCCAAAACUACAGAAAUGUAUUUGACGAGGAGGAGGUUUAUCGAAUUUUCGGCGGAUGCCUCCAAA [G13A G29U] | 777 ± 690
17 | AUAAAAGCGCCUAAACUACAGAAAUGUAGUUGACGAGGAGGAGGUUUAUGGAAUUUUCGGCGGAUGUCUCCAAA [A12U G13A C50G C67U] | 21.6 ± 18
18 | AUAAAAGCGCCUGAACUACAGAAAUGUAGUUGACGAGGAGGAGGUUUAUCGAAUUUUCAGCGGAUGCCUCCAAA [A12U G59A] | 3140 ± 430
19 | AUAAAAGCGCCUGAACUACAGAAAUGUAGUUGACGAGGAGGAGGUUCAUCGAAUUUUCGGCGGAUGCCUCCAAA [A12U U47C] | 1790 ± 840
20 | AUAAAAGCGCCUGAACUACAGAAAUGUAGUUGACGAGGAGGGGGUUUAUCGAAUUUUCGGCGGAUGCCUCCAAA [A12U A42G] | 1430 ± 760
21 | AUAAAAGCGCCUGAACUACAGAAAUGUAGUUGACGAGGAGGAGGUUUAUCGAAUUUUCGACGGAUGCCUCCAAA [A12U G60A] | 2040 ± 700
22 | AUAAAAGCGCCAAAACUACAGAAAUGUAGUUGACGAGGAGGAGGUUUAUCGAAUUUUCGGCGGAUGCCUCGAAA [G13A C71G] | 199 ± 110
23 | AUAAAAGCGCCACAACUACAGAAAUGUAGUUGACGAGGAGGAGGUUGAUCGAAUUUUCGGCGGAUGCCUCCAAA [G13C U47G] | 163 ± 98
24 | AUAAAAGCGCCAUGACUACAGAAAUGUAGUUGACGAGGAGGAGGUUUAUCGAAUUUUCGGCGGAUGCCUCCAAA [G13U A14G] | 2720 ± 1700
25 | AUAAAAGCGCCAGCACUACAGAAAUGUAGUUGACGAGGAGGAGGUUUAUCGGAUUUGCGGCGGAUGCCUCCAAA [A14C A52G U57G] | 964 ± 770
26 | AUAAAAGCGCCUGAACUACAGAAAUGUAGUUGACGAGGAGGAAGUUUAUCGAAUUUUCGGCGGAUGCCUCCAAA [A12U G43A] | 2010 ± 540
27 | AUAAAAGCGCCAAAACUACAGAAAUGUAGUUGACGAGGAGGAGGUUUAUCGAAUUUUCGGCGGAUGCCUUCAAA [G13A C70U] | 2410 ± 870
28 | AUAAAAGCGCCACCACUACAGAAAUGUAGUUGACGAGGAGGAGGAUUAUCGAAUUUUCGGCGGAUGCCUCCAAA [G13C A14C U45A] | 4580 ± 3400

Quoted at random: two entries already listed, in no set order.
Row | Variant | KM [µM]
15 | AUAAAAGCGCCUGAACUACAGAAAUGUAGCUGACGAGGAGGAGGUUUAUCGACUUUUCGGCGGAUGCCUCCAAA [A12U U30C A53C] | 555 ± 500
3 | AUAAAAGCGCCAGCACUACAGAAAUGUAGUUGACGAGGAGGAGGUUUAUCGAGUUUUCGGCGGAUGCCUCCAAA [A14C A53G] | 4860 ± 3000

Variants of: B1
Test: self-cleavage kobs at 160 uM GlcN6P; higher = faster cleavage; RNA array
Conditions: with glucosamine-6-phosphate
Summary of the method: as §1

Row | Variant | self-cleavage kobs at 160 uM GlcN6P [s⁻¹]
29 | AUAAAAGCGCCUAAACUACAGAAAUGUAGUUGACGAGGAGGAGGUUUAUCGAAUUUUCGGCGGAUGCCUCCAAA [A12U G13A] | 2.31e-05 ± 1.6e-05
30 | AUAAAAGCGCCAAAACUACAGAAAUGUAGUUGACGAGGAGGAGGUUUAUCGAAUUUUCGGCGGAUGCCUCGAAA [G13A C71G] | 1.72e-05 ± 1.5e-05

Variants of: B1
Test: self-cleavage kobs at 10000 uM GlcN6P; higher = faster cleavage; RNA array
Conditions: with glucosamine-6-phosphate
Summary of the method: as §1

Row | Variant | self-cleavage kobs at 10000 uM GlcN6P [s⁻¹]
31 | AUAAAAGCGCCACAACUACAGAAAUGUAGUUGACGAGGAGAAGGUUUAUCGAAUUUUCGGCGGAUGCCUCCAAA [G13C G41A] | 1.87e-05 ± 1.7e-05

Variants of: B1
Test: self-cleavage kobs at 2500 uM GlcN6P; higher = faster cleavage; RNA array
Conditions: with glucosamine-6-phosphate
Summary of the method: as §1

Row | Variant | self-cleavage kobs at 2500 uM GlcN6P [s⁻¹]
32 | AUAAAAGCGCCACAACUACAGAAAUGUAGUUGACGAGGAGGAGGGUUAUCGAAUUUUCGGCGGAUGCCUCCAAA [G13C U45G] | 2.5e-05 ± 2.4e-05
33 | AUAAAAGCGCCUGAACUACAGAAAUGUAGUUGACGAGGAGGGGGUUUAUCGAAUUUUCGGCGGAUGCCUCCAAA [A12U A42G] | 0.0983 ± 0.06
34 | AUAAAAGCGCCACAACUACAGAAAUGUAGUUGACGAGGAGGAGGUUGAUCGAAUUUUCGGCGGAUGCCUCCAAA [G13C U47G] | 2.7e-05 ± 1.9e-05

Variants of: B1
Test: self-cleavage kobs at 40 uM GlcN6P; higher = faster cleavage; RNA array
Conditions: with glucosamine-6-phosphate
Summary of the method: as §1

Row | Variant | self-cleavage kobs at 40 uM GlcN6P [s⁻¹]
35 | AUAAAAGCGCCUGAACUACAGAAAUGUAGCUGACGAGGAGGAGGUUUAUCGACUUUUCGGCGGAUGCCUCCAAA [A12U U30C A53C] | 3.67e-05 ± 2.3e-05

Variants of: B1
Test: self-cleavage kobs at 640 uM GlcN6P; higher = faster cleavage; RNA array
Conditions: with glucosamine-6-phosphate
Summary of the method: as §1

Row | Variant | self-cleavage kobs at 640 uM GlcN6P [s⁻¹]
36 | AUAAAAGCGCCACAACUACAGAAAUGUAGUUGACGAGGAGGAGGUUGAUCGAAUUUUCGGCGGAUGCCUCCAAA [G13C U47G] | 2.64e-05 ± 2.1e-05
37 | AUAAAAGCGCCACCACUACAGAAAUGUAGUUGACGAGGAGGAGGAUUAUCGAAUUUUCGGCGGAUGCCUCCAAA [G13C A14C U45A] | 3.02e-05 ± 1.8e-05
